Reference: article doi:10.1101/741033
No constants are given. Whether binding was seen depends on the method and setting. In cells and extracts the contact can be indirect. A result given as binding can be weak or reduced; the word gives no strength.

What was measured:
[1] = target: GFP-tagged GEXP10 (GEXP10-GFP) (P. falciparum 3D7) (UniProt Q8I2D9); assay: co-IP
[2] = target: GFP-tagged virulence complex assembly protein 1 (VCAP1-GFP) (P. falciparum 3D7) (UniProt Q8IEJ0); assay: co-IP

Substance: membrane-associated histidine-rich protein 1 (MAHRP1), endogenous (from UniProt C0H5L9 1-249)
- binding [1]: binds
- binding [2]: binds
